# Primary screen of a compound library

Protein sequences, listed by entry. Tags and fused reporters are not part of them.
UniProt P9WPC5, whole entry: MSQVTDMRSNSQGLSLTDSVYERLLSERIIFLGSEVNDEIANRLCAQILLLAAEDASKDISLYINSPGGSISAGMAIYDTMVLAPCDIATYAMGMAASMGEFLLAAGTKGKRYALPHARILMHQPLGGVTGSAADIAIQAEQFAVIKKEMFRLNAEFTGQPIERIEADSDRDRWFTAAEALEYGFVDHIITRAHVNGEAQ
UniProt P9WPC3, whole entry partner: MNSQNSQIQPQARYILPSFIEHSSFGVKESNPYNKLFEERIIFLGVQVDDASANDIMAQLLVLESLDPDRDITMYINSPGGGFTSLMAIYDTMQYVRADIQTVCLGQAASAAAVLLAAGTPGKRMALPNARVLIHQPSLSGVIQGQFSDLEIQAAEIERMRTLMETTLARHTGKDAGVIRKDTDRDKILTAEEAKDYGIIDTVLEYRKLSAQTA

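ClpP1P2, Mycobacterium tuberculosis (UniProt P9WPC5 and UniProt P9WPC3). Protease assay of ClpP1P2, read by the AMC dye that it sets free. Concentration: 50 µM. Higher reads as stronger inhibition, judged from the few compounds that gave an IC50. Most other retested compounds had strongly negative values. Size under these conditions: about 69,000 compounds, about 10 of them at 50% or above in at least one test.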

The filed quantity is “Percent Effect” (%). How 0% and 100% were set is not recorded. Most values in the screen are low, and negative values occur. This is an unselected part of the compounds tested.

* COC(=O)c1ccc(C(=O)NCc2nn(C)c3c2COCC3)cc1 | -13.33%
* CCn1ccnc1CN(C)CC1CCCN1c1cccnn1 (stereo unspecified) | 10.6%
* COc1cccc(CNC(=O)c2nc3c(s2)CCN(C(C)=O)CC3)c1 | 11.21%
* CC(C)CN1CCC(C(=O)NCCNC(=O)c2ccco2)CC1 | -0.01045%
* CC(C)N1CC(C(=O)N2CCc3c(nc(CC4CC4)[nH]c3=O)C2)CC1=O (stereo unspecified) | -4.814%
* Cc1nc[nH]c1-c1nccn1-c1ccc(C(N)=O)c(N2CCCC2)c1 | 5.669%
* O=S(=O)(CCO)CCc1ccccc1Cl | -0.5871%
* Cn1cc(C2CC(=O)NC23CCN(C(=O)c2ccc[nH]2)CC3)cn1 (stereo unspecified) | 5.407%
* COCCN1CCC(c2nc3ccccc3[nH]2)CC1 | -4.797%
* CCc1cccc(NC(=O)CCC(=O)N(C)Cc2nc(C)c[nH]2)c1 | -7.743%
* O=C(O)c1cncc(Cc2cccc(F)c2)c1 | 7.71%
* CN(C)C(CNCc1nc(-c2ccsc2)no1)c1ccco1 (stereo unspecified) | -5.969%
* Cn1cc(CN2CCC(c3cc(COc4cccc(Cl)c4)[nH]n3)C2)cn1 (stereo unspecified) | -13.4%
* CC(C)(C)C(=O)NCCCc1nc2ccccc2[nH]1 | 6.548%
* O=C(Nc1cc(-c2cccnc2)no1)C1CCCCC1 | -1.531%
* Cc1ccc(Cl)c(NC(=O)c2cccc(CN3CC[C@H](O)C3)c2)c1 | -12.23%
* CS(=O)(=O)N1C[C@@H](C(=O)Nc2cnccn2)C[C@H]2OCC[C@H]21 | 4.306%
* CC(C)c1cc(CN(C)C(=O)CN2CCCCC2=O)no1 | -3.405%
* O=C(CN1CCCC(c2noc(C3CC3)n2)C1)N1CCCC1 (stereo unspecified) | 3.354%
* CCOC(=O)CSc1ccc(-c2nc(C)no2)cn1 | -8.021%
* O=C(C1CCCO1)N1CCC(n2cc(-c3ccc(F)cc3)nn2)CC1 (stereo unspecified) | 1.414%
* CCc1nnc(CN(CC)C(=O)C2CC(=O)N(C3CCCC3)C2)o1 (stereo unspecified) | -4.987%
* Cc1cc(C)n(CC2CCCN2C(=O)c2nccc3ccccc23)n1 (stereo unspecified) | -29.07%
* CCc1nc(C)c(CN2CCOC(Cc3cccc4ccccc34)C2)[nH]1 (stereo unspecified) | -9.094%
* COc1ccc(CC(=O)N2CC[C@H](CO)[C@H](O)C2)c(OC)c1 | -5.141%
* Cc1ccc2c(c1)CCC21CCN(C(=O)CO)CC1 | 2.681%
* COCCN1C[C@@H](C)[C@@]2(COCCN(C(=O)c3ccccn3)C2)C1 | 5.79%
* Cc1nc(CNCC2CCCN2c2cccnn2)cs1 (stereo unspecified) | -2.425%
* O=C([C@H]1CCCO1)N1CC[C@H](O)[C@@H]1Cc1cccnc1 | -6.855%
* CC(NCc1ccccn1)c1ccc(N2CCN(C)CC2)c(F)c1 (stereo unspecified) | -2.908%
* Cc1cnn(CC2CCCCN2Cc2nc(C)c3ccccc3n2)c1 (stereo unspecified) | -32.18%
* O=C(CN1CCSCC1c1ccccc1)N1CCOCC1 (stereo unspecified) | 2.797%
* CC(C)(C)SCCNC(=O)[C@@]12CNC[C@@H]1CN(S(C)(=O)=O)C2 | -11.58%
* Cc1nc(C(=O)N2CCC(c3nccn3Cc3ccncc3)CC2)cs1 | -8.382%
* CCn1c(C2CCN(C(=O)c3ccc4sc(C)nc4c3)CC2)n[nH]c1=O | -1.509%
* CC(C)c1nc(CN2CCN(C(=O)Cc3ccccc3Cl)CC2)no1 | -9.448%
* Cc1cscc1C(=O)Nc1cncnc1N(C)C | -4.818%
* Cc1cncc(C(=O)N2C[C@@H]3CN(S(C)(=O)=O)CCO[C@@H]3C2)c1 | 5.487%
* CN(C)c1ncc(CNS(=O)(=O)c2cc(F)ccc2Cl)n1C | 2.308%
* CC(C)CN(C)c1ccc(C(=O)N2CCCC2c2cnn(C)c2)cn1 (stereo unspecified) | 11.99%
* CCOCCNC(=O)C1CCC(=O)N(CCc2ccc(Cl)cc2)C1 (stereo unspecified) | -25.33%
* c1cnc(N2CCOCC3(CNCCO3)C2)nc1 (stereo unspecified) | 23.35%
* CC1N(c2cnn(C)c2)C(=O)COC12CCN(CC1CC1)CC2 (stereo unspecified) | -13.79%
* C[S+]([O-])CCCNCc1cc(F)ccc1Br (stereo unspecified) | -1.051%

For reference, 3 entries once more:

* CC(C)(C)C(=O)NCCCc1nc2ccccc2[nH]1 : 6.548%
* Cc1nc[nH]c1-c1nccn1-c1ccc(C(N)=O)c(N2CCCC2)c1 : 5.669%
* CC(C)CN(C)c1ccc(C(=O)N2CCCC2c2cnn(C)c2)cn1 (stereo unspecified) : 11.99%

The values are deposited in ChEMBL (CHEMBL3988442, “University of Dundee, Small-Polar-MMV Screening Library” (2021)).